The source of these data is the supplement of paper PMC8426693.

This is one part of the list.

The assay deals with SARS-CoV-2 5'-UTR RNA. Put plainly: NMR binding call after quantification (hit when 2 of 3 NMR criteria are met) (binary (1 = binding, 0 = not binding)); higher = binding. As to conditions: RNA concentration 10 µM; fragment concentration 200 µM; 293 K.
For `CN(C)Cc1ccc(C#N)cc1`, the NMR binding call is 0. Next, `Cc1cnc(N2CCNCC2)s1.Cl.Cl`: 0. Next, `Cc1cc2ncn(CC(N)=O)c2cc1C`: 0; `CC(C)(C)C(=O)NCCc1nc2ccccc2[nH]1`: 0; `OCCN1CCOCC1`: 0. `OCC1CN(Cc2ccccc2)CCO1` (centres undefined) gave an NMR binding call of 0. With `COCC1CN(c2ccccn2)CCO1` (centres undefined), the NMR binding call amounted to 0. Next, `COC(=O)Nc1ccc(Cc2ccncc2)cc1`: 0; `CC(C)C(=O)Nc1ccc(N2CCCCC2)cc1`: 0.

The compound `OCc1cn(-c2ccc(Cl)c(Cl)c2)nn1` registered an NMR binding call of 1. In the case of `CN1CCN(C(=O)CO)CC1`, the NMR binding call worked out at 0. As to `O=C(CCCc1ccccc1)N1CCOCC1`, the NMR binding call was 0. Next, `O=C(NCCc1ccncc1)NC1CCCCC1`: 0. Next, `CC(=O)Nc1ccc(CN2CCOCC2)cc1`: 0.
